Laboratory results as given in the supplement of paper PMC12067093, “Discovery and optimisation of a covalent ligand for TRIM25 and its application to targeted protein ubiquitination” (Chemical Science, 2025).
The list shows a part of the results.

The chains behind the UniProt entries cited, without tags or fusion partners. Where a name states a change or a piece, a line headed by the entry shows the natural chain unless it says otherwise.
UniProt Q15942: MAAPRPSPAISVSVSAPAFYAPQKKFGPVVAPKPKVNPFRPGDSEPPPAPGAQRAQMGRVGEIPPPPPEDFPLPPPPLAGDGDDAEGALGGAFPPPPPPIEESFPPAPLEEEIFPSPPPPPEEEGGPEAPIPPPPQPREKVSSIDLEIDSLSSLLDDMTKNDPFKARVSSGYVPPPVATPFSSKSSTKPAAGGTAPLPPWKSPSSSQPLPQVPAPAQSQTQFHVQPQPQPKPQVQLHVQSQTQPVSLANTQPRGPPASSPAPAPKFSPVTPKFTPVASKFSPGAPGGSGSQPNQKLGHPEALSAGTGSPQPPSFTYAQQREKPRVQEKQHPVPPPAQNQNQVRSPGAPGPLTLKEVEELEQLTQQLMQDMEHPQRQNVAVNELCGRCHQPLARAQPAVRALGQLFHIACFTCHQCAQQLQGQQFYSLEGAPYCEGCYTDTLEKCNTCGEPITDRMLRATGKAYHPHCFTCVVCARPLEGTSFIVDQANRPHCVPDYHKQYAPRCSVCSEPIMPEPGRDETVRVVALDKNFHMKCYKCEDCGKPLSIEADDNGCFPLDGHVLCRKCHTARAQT
UniProt Q9H5H4: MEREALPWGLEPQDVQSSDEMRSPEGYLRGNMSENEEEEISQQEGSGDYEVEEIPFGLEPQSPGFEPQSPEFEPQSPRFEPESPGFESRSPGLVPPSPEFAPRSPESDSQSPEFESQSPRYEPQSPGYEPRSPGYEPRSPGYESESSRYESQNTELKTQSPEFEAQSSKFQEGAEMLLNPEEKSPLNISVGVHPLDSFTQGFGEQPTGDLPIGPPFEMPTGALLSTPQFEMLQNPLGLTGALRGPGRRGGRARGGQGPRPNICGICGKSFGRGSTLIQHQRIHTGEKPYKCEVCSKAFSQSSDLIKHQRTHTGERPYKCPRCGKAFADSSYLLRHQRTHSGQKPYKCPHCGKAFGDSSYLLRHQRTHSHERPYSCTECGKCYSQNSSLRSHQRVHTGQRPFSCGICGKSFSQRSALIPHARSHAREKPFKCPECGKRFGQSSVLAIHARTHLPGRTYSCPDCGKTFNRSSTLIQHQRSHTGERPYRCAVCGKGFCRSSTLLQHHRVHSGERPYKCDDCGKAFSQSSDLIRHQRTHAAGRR
UniProt Q96AP4: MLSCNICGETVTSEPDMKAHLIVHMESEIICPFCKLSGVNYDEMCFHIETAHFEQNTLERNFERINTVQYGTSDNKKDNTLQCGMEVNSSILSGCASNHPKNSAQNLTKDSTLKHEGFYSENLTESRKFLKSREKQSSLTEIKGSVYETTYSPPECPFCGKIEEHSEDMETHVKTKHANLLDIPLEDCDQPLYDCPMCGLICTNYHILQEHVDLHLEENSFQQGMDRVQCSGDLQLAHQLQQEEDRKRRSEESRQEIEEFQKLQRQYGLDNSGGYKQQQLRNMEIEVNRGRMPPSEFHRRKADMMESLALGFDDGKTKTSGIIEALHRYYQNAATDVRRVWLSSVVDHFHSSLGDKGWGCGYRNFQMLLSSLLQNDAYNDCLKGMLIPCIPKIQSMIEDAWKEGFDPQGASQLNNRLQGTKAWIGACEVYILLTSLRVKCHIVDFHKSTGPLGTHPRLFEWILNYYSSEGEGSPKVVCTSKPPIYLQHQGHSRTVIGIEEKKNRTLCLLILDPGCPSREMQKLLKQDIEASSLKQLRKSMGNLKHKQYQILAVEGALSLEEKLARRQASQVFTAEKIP
UniProt Q6DD87: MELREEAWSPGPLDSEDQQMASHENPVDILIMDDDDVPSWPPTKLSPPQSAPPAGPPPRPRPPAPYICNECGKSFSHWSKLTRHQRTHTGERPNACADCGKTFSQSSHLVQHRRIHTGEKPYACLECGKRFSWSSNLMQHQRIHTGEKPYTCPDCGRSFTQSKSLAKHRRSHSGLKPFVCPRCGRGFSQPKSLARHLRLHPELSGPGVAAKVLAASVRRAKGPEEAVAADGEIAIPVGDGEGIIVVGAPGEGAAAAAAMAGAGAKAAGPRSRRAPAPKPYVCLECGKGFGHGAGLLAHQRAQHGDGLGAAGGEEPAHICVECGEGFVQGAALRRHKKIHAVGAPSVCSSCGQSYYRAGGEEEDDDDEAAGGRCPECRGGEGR
UniProt Q8IYH5: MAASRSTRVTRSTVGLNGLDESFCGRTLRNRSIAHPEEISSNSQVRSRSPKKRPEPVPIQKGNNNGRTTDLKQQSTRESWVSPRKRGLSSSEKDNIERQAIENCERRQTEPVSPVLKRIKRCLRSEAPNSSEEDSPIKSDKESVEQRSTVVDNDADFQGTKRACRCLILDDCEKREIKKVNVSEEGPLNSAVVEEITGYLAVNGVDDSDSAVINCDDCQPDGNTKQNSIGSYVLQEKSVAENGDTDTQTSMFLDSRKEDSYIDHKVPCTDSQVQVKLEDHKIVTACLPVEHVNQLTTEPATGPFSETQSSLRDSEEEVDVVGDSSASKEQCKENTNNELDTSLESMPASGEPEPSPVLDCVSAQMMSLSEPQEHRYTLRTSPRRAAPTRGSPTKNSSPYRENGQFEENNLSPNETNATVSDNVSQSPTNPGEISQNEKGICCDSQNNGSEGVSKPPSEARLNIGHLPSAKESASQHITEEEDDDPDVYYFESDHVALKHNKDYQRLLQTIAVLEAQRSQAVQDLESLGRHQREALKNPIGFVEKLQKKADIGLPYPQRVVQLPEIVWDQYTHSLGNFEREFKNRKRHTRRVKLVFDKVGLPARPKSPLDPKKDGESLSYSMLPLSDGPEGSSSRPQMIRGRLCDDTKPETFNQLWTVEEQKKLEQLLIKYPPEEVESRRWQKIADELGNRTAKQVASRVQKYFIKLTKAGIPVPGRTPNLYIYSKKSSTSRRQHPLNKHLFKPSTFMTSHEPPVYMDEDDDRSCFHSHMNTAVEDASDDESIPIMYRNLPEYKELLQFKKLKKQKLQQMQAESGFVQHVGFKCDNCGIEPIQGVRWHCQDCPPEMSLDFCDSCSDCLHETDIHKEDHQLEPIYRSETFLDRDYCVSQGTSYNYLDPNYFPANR
UniProt Q9P2E3: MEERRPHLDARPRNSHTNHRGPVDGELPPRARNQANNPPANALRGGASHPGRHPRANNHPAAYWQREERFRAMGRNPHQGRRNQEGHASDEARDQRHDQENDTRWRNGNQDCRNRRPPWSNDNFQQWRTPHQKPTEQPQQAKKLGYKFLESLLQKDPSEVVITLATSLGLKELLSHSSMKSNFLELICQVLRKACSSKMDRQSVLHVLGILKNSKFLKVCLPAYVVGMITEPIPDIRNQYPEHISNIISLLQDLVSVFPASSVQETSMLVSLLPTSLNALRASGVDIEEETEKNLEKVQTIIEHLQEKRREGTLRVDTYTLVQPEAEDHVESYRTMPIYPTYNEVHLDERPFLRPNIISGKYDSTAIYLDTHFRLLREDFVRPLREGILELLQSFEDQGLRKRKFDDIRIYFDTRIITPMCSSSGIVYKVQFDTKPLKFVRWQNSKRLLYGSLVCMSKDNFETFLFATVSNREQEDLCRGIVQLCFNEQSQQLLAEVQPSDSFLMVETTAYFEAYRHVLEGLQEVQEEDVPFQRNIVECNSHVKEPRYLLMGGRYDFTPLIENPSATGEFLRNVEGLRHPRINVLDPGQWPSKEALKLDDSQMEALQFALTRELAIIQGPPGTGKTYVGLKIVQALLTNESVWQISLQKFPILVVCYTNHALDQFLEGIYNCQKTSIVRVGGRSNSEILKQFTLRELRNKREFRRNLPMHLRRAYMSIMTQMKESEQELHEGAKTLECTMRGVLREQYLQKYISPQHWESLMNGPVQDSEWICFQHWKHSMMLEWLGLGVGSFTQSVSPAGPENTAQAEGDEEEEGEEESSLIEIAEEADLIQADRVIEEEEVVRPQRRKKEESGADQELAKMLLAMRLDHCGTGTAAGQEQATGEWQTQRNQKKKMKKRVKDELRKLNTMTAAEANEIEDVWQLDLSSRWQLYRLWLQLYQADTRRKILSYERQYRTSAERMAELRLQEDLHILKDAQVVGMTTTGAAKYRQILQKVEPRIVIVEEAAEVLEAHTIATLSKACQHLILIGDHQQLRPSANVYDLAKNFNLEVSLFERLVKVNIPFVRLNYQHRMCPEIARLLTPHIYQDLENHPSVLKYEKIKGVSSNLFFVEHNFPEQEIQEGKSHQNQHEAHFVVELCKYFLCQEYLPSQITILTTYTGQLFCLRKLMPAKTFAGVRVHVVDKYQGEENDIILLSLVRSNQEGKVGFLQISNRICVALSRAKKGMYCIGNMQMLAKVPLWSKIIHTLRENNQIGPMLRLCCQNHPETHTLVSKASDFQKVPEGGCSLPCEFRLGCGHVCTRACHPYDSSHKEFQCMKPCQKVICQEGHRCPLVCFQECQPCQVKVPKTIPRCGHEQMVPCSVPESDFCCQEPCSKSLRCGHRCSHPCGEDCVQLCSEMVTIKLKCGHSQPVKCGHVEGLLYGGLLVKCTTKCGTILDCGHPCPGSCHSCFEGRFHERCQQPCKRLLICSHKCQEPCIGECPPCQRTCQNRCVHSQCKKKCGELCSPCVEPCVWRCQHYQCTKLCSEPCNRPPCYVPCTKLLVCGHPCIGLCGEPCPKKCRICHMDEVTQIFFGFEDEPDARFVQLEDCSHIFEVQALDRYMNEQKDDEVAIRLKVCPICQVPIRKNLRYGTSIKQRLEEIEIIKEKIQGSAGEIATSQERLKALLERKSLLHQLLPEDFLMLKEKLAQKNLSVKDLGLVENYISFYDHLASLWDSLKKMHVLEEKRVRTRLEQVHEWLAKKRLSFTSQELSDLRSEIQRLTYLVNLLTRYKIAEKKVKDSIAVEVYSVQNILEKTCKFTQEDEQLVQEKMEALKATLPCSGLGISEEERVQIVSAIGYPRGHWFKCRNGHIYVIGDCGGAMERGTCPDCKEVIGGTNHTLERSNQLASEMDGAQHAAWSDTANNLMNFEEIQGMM
UniProt O43264: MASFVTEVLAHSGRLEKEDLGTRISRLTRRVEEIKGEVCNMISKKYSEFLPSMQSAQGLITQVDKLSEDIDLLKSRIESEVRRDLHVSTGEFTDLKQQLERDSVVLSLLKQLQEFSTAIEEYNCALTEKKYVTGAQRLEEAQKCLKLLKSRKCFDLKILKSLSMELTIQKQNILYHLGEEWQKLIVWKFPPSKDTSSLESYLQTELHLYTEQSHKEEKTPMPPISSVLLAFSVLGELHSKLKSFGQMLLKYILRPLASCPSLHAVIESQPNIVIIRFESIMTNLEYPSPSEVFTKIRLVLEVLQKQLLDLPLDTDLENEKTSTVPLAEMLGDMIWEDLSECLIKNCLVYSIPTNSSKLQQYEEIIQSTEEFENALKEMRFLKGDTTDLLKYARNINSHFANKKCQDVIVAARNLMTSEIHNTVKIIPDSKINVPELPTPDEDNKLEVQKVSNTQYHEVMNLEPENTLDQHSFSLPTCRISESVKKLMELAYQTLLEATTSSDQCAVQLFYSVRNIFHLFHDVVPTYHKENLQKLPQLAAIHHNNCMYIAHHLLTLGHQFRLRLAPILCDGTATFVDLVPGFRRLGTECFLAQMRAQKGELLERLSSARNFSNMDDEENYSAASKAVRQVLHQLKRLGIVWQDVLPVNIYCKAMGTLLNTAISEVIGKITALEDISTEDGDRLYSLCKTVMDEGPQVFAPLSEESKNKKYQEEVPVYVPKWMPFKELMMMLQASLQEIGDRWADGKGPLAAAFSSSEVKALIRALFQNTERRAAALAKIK
UniProt P36508: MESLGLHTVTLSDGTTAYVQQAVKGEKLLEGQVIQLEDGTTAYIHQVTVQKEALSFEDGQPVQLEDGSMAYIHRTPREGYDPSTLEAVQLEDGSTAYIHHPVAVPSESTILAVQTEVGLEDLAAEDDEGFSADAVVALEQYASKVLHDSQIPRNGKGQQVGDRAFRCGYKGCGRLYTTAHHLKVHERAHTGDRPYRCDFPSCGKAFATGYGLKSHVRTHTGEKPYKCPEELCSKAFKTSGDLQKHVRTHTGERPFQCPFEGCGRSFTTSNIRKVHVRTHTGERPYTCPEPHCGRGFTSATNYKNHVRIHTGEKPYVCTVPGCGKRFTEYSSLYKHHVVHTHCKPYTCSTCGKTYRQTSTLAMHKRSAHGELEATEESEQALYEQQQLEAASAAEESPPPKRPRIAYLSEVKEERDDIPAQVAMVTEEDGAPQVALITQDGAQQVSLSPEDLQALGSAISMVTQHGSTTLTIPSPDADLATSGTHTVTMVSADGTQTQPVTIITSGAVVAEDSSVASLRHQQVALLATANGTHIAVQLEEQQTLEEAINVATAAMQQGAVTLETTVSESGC

Compound: CC1Cc2ccccc2N1C(=O)C1CCCN(C1)C(=O)CCl (mixture of isomers) [TRIM25 ligand 11 (diastereomer mixture)]
Assay: probe-labelled cysteine peptide fold change vs DMSO (competition) (log2 fold change); higher = less target engagement (more negative = stronger competition)
Settings: THP-1, incubation time: 4 h
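Also: competitive chemoproteomic profiling in live THP-1 cells with an iodoacetamide desthiobiotin (IA-DTB) probe, comparing probe-labelled peptide intensities in compound-treated cells against DMSO-treated controls.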

Target	probe-labelled cysteine peptide fold change (10 µM)	probe-labelled cysteine peptide fold change (50 µM)
ZYX_Q15942_537+540_CEDCGKPLSIEADDNGCFPLDGHVLCR (UniProt Q15942)	-0.102	-0.0602
ZNF768_Q9H5H4_378_THSHERPYSCTECGK (UniProt Q9H5H4)	-0.0576	-0.159
ZZEF1_O43149_719_AEAEQSVTCAHCR (UniProt O43149)	0.0127	-0.0587
ZUP1_Q96AP4_478_VVCTSKPPIYLQHQGHSR (UniProt Q96AP4)	-0.0271	0.241
ZYX_Q15942_537+540+553_CEDCGKPLSIEADDNGCFPLDGHVLCR (UniProt Q15942)	-0.0901	-0.207
ZNF787_Q6DD87_180_SHSGLKPFVCPR (UniProt Q6DD87)	-0.0374	0.0143
ZZZ3_Q8IYH5_104_QAIENCER (UniProt Q8IYH5)	0.0915	-0.159
ZNFX1_Q9P2E3_1416_CGHVEGLLYGGLLVK (UniProt Q9P2E3)	-0.0464	-0.153
ZYX_Q15942_444+447_CNTCGEPITDR (UniProt Q15942)	-0.164	-0.00315
ZYX_Q15942_540+553+562_CEDCGKPLSIEADDNGCFPLDGHVLCR (UniProt Q15942)	-0.241	-0.194
ZW10_O43264_588_LGTECFLAQMR (UniProt O43264)	0.647	0.508
ZZZ3_Q8IYH5_24_STVGLNGLDESFCGR (UniProt Q8IYH5)	0.0269	-0.268
ZNFX1_Q9P2E3_1860_NGHIYVIGDCGGAMER (UniProt Q9P2E3)	-0.0816	-0.0183
ZNFX1_Q9P2E3_1591_FVQLEDCSHIFEVQALDR (UniProt Q9P2E3)	0.0663	-0.0266
ZNF76_P36508_342_HHVVHTHCK (UniProt P36508)	0.158	0.135
ZYX_Q15942_492_PLEGTSFIVDQANRPHCVPDYHK (UniProt Q15942)	-0.0694	-0.0353

As a working copy, some entries already given:
Target	probe-labelled cysteine peptide fold change (10 µM)	probe-labelled cysteine peptide fold change (50 µM)
ZYX_Q15942_540+553+562_CEDCGKPLSIEADDNGCFPLDGHVLCR (UniProt Q15942)	-0.241	-0.194
ZW10_O43264_588_LGTECFLAQMR (UniProt O43264)	0.647	0.508
